Assay results taken from the supplement of paper PMC7661543.
The effect of the compound repeats well; differences between the knockouts mostly do not.

Tested on: SKBR3
Assay: relative cell number vs DMSO control (72 h) (% of DMSO); higher = less growth inhibition (more cells)
Description: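 QMAP-Seq: a pool of 5 breast cancer cell lines (ZR-75-1, SKBR3, HCC-38, MDA-MB-231, BT-20), each carrying 12 doxycycline-inducible Cas9 sgRNA perturbations (11 knockouts plus non-targeting sgNT), was treated with compounds for 72 h at four 10-fold doses (10 nM-10 uM or 1 nM-1 uM range). Barcodes were amplified and sequenced, and cell number was interpolated from 293T spike-in standard curves. The result is expressed as % of the median of DMSO wells. Two biological replicates.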

COc1cc(-n2c(=S)[nH]c3ccccc3c2=O)c(Cl)cc1Cl [Mdivi1]
Settings | relative cell number
sgRNA knockout: sgATF3, 10 nM | 96.2
sgRNA knockout: sgATF3, 100 nM | 82.7
sgRNA knockout: sgATF3, 1000 nM | 99.69
sgRNA knockout: sgATF3, 10000 nM | 63.8
sgRNA knockout: sgATF4, 10 nM | 86.88
sgRNA knockout: sgATF4, 100 nM | 107
sgRNA knockout: sgATF4, 1000 nM | 87.7
sgRNA knockout: sgATF4, 10000 nM | 59.4
sgRNA knockout: sgATF6, 10 nM | 82.8
sgRNA knockout: sgATF6, 100 nM | 85.2
sgRNA knockout: sgATF6, 1000 nM | 78.8
sgRNA knockout: sgATF6, 10000 nM | 50.4
sgRNA knockout: sgATG7, 10 nM | 77.8
sgRNA knockout: sgATG7, 100 nM | 113
sgRNA knockout: sgATG7, 1000 nM | 101
sgRNA knockout: sgATG7, 10000 nM | 37.1
sgRNA knockout: sgERN1, 10 nM | 79
sgRNA knockout: sgERN1, 100 nM | 101
sgRNA knockout: sgERN1, 1000 nM | 63.1
sgRNA knockout: sgERN1, 10000 nM | 89.2
sgRNA knockout: sgHSF1, 10 nM | 80.9
sgRNA knockout: sgHSF1, 100 nM | 98.5
sgRNA knockout: sgHSF1, 1000 nM | 68.2
sgRNA knockout: sgHSF1, 10000 nM | 56.3
sgRNA knockout: sgHSF2, 10 nM | 85.1
sgRNA knockout: sgHSF2, 100 nM | 97.5
sgRNA knockout: sgHSF2, 1000 nM | 84.5
sgRNA knockout: sgHSF2, 10000 nM | 56.8
sgRNA knockout: sgKEAP1, 10 nM | 96
sgRNA knockout: sgKEAP1, 100 nM | 108
sgRNA knockout: sgKEAP1, 1000 nM | 89.8
sgRNA knockout: sgKEAP1, 10000 nM | 61.59
sgRNA knockout: sgNFE2L2, 10 nM | 94
sgRNA knockout: sgNFE2L2, 100 nM | 107
sgRNA knockout: sgNFE2L2, 1000 nM | 101
sgRNA knockout: sgNFE2L2, 10000 nM | 61.8
sgRNA knockout: sgSLC35F2, 10 nM | 72
sgRNA knockout: sgSLC35F2, 100 nM | 111
sgRNA knockout: sgSLC35F2, 1000 nM | 87
sgRNA knockout: sgSLC35F2, 10000 nM | 63.1
sgRNA knockout: sgXBP1, 10 nM | 88.2
sgRNA knockout: sgXBP1, 100 nM | 83.2
sgRNA knockout: sgXBP1, 1000 nM | 97.3
sgRNA knockout: sgXBP1, 10000 nM | 78.1

O=C1c2c(O)ccc(O)c2C(=O)c2c(NCCNCCO)ccc(NCCNCCO)c21 [Mitoxantrone]
Settings | relative cell number
sgRNA knockout: sgATF3, 10 nM | 45.6
sgRNA knockout: sgATF3, 100 nM | 17.8
sgRNA knockout: sgATF3, 1000 nM | 6.03
sgRNA knockout: sgATF3, 10000 nM | 6.82
sgRNA knockout: sgATF4, 10 nM | 52.1
sgRNA knockout: sgATF4, 100 nM | 27.2
sgRNA knockout: sgATF4, 1000 nM | 8.52
sgRNA knockout: sgATF4, 10000 nM | 4.59
sgRNA knockout: sgATF6, 10 nM | 50.1
sgRNA knockout: sgATF6, 100 nM | 22.1
sgRNA knockout: sgATF6, 1000 nM | 6.71
sgRNA knockout: sgATF6, 10000 nM | 4.34
sgRNA knockout: sgATG7, 10 nM | 56.7
sgRNA knockout: sgATG7, 100 nM | 23.7
sgRNA knockout: sgATG7, 1000 nM | 4.04
sgRNA knockout: sgATG7, 10000 nM | 7.83
sgRNA knockout: sgERN1, 10 nM | 36.4
sgRNA knockout: sgERN1, 100 nM | 25.6
sgRNA knockout: sgERN1, 1000 nM | 6.16
sgRNA knockout: sgERN1, 10000 nM | 7.09
sgRNA knockout: sgHSF1, 10 nM | 55.1
sgRNA knockout: sgHSF1, 100 nM | 22.3
sgRNA knockout: sgHSF1, 1000 nM | 6.59
sgRNA knockout: sgHSF1, 10000 nM | 5.26
sgRNA knockout: sgHSF2, 10 nM | 38.8
sgRNA knockout: sgHSF2, 100 nM | 24.1
sgRNA knockout: sgHSF2, 1000 nM | 7.5
sgRNA knockout: sgHSF2, 10000 nM | 6.11
sgRNA knockout: sgKEAP1, 10 nM | 38.6
sgRNA knockout: sgKEAP1, 100 nM | 27.2
sgRNA knockout: sgKEAP1, 1000 nM | 9.05
sgRNA knockout: sgKEAP1, 10000 nM | 6.46
sgRNA knockout: sgNFE2L2, 10 nM | 46.9
sgRNA knockout: sgNFE2L2, 100 nM | 17.2
sgRNA knockout: sgNFE2L2, 1000 nM | 7.088
sgRNA knockout: sgNFE2L2, 10000 nM | 7.13
sgRNA knockout: sgSLC35F2, 10 nM | 47.2
sgRNA knockout: sgSLC35F2, 100 nM | 23.6
sgRNA knockout: sgSLC35F2, 1000 nM | 6.35
sgRNA knockout: sgSLC35F2, 10000 nM | 6.6
sgRNA knockout: sgXBP1, 10 nM | 41.4
sgRNA knockout: sgXBP1, 100 nM | 24.5
sgRNA knockout: sgXBP1, 1000 nM | 6.11
sgRNA knockout: sgXBP1, 10000 nM | 7.42

CCNC(=O)c1noc(-c2cc(C(C)C)c(O)cc2O)c1-c1ccc(CN2CCOCC2)cc1 [NVPAUY922]
Settings | relative cell number
sgRNA knockout: sgATF3, 1 nM | 114
sgRNA knockout: sgATF3, 10 nM | 73.1
sgRNA knockout: sgATF3, 100 nM | 35.1
sgRNA knockout: sgATF3, 1000 nM | 28.6
sgRNA knockout: sgATF4, 1 nM | 95.6
sgRNA knockout: sgATF4, 10 nM | 71
sgRNA knockout: sgATF4, 100 nM | 25.9
sgRNA knockout: sgATF4, 1000 nM | 29.2
sgRNA knockout: sgATF6, 1 nM | 94
sgRNA knockout: sgATF6, 10 nM | 92.9
sgRNA knockout: sgATF6, 100 nM | 34.7
sgRNA knockout: sgATF6, 1000 nM | 26.7
sgRNA knockout: sgATG7, 1 nM | 97.3
sgRNA knockout: sgATG7, 10 nM | 73.9
sgRNA knockout: sgATG7, 100 nM | 39.4
sgRNA knockout: sgATG7, 1000 nM | 28.7
sgRNA knockout: sgERN1, 1 nM | 88.4
sgRNA knockout: sgERN1, 10 nM | 86.7
sgRNA knockout: sgERN1, 100 nM | 40.8
sgRNA knockout: sgERN1, 1000 nM | 34.3
sgRNA knockout: sgHSF1, 1 nM | 109
sgRNA knockout: sgHSF1, 10 nM | 63.9
sgRNA knockout: sgHSF1, 100 nM | 25.3
sgRNA knockout: sgHSF1, 1000 nM | 31.8
sgRNA knockout: sgHSF2, 1 nM | 97.1
sgRNA knockout: sgHSF2, 10 nM | 67.2
sgRNA knockout: sgHSF2, 100 nM | 30.6
sgRNA knockout: sgHSF2, 1000 nM | 26
sgRNA knockout: sgKEAP1, 1 nM | 114
sgRNA knockout: sgKEAP1, 10 nM | 67.3
sgRNA knockout: sgKEAP1, 100 nM | 38.3
sgRNA knockout: sgKEAP1, 1000 nM | 34.7
sgRNA knockout: sgNFE2L2, 1 nM | 95.57
sgRNA knockout: sgNFE2L2, 10 nM | 69.8
sgRNA knockout: sgNFE2L2, 100 nM | 25.9
sgRNA knockout: sgNFE2L2, 1000 nM | 37.8
sgRNA knockout: sgSLC35F2, 1 nM | 102
sgRNA knockout: sgSLC35F2, 10 nM | 70.2
sgRNA knockout: sgSLC35F2, 100 nM | 34.2
sgRNA knockout: sgSLC35F2, 1000 nM | 32.2
sgRNA knockout: sgXBP1, 1 nM | 102
sgRNA knockout: sgXBP1, 10 nM | 72.3
sgRNA knockout: sgXBP1, 100 nM | 30.5
sgRNA knockout: sgXBP1, 1000 nM | 25.9
